# Screening data, single-dose tests

The chains behind the UniProt entries cited, without tags or fusion partners. Residues count along the entry.
UniProt Q4DA54, 1-478: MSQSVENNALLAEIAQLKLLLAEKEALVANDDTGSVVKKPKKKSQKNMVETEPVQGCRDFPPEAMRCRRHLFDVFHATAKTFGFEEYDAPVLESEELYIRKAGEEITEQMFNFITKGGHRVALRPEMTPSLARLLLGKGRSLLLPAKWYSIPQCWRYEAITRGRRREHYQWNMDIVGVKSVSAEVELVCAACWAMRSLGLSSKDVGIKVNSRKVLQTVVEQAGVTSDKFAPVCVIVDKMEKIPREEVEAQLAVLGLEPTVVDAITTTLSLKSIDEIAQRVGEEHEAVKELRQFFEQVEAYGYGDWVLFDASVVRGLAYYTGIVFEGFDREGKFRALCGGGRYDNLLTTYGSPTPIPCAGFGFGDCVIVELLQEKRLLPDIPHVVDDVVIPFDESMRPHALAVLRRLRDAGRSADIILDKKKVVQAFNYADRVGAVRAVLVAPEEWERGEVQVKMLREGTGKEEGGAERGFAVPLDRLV
UniProt Q8IDJ8, 1-583: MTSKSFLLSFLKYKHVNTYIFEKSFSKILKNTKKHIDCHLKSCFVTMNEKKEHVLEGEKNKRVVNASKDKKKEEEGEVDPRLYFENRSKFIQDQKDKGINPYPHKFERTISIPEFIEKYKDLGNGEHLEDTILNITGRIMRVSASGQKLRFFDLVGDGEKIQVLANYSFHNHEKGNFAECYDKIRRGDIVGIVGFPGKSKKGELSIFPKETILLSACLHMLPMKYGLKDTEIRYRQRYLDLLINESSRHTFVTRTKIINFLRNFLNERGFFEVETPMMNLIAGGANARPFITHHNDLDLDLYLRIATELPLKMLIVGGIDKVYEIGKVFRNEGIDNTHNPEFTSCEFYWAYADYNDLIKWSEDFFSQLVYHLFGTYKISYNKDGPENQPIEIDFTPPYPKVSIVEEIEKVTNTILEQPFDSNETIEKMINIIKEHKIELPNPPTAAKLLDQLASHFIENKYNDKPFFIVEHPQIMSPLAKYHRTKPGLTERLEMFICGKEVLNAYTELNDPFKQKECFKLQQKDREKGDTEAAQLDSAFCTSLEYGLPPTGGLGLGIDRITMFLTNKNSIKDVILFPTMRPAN

The filed quantity is “Percent Effect” (%). The controls that fix the scale are not given in the record; negative values are as filed. Compounds were drawn at random from those tested, without regard to their results.

TcHisRS: 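Enzyme assay of histidyl-tRNA synthetase; the read-out is not stated. Target: Histidine-tRNA ligase, Trypanosoma cruzi CL Brener (UniProt Q4DA54). Tested at 30 µM. Direction is inferred from retests: higher values go with stronger inhibition. Size under these conditions: about 69,000 compounds, about 31 of them at 50% or above in at least one test.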
PfKRS1: 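Lysine-tRNA ligase, Plasmodium falciparum 3D7 (UniProt Q8IDJ8). Enzyme assay of the cytosolic lysyl-tRNA synthetase in 384-well plates, read by luminescence. Compounds at 30 µM. Direction is inferred from only a few compounds that gave an IC50; most scored high, so higher reads as stronger inhibition. Of about 69,000 compounds tested this way, about 49 (0.071%) reached 50% or more in at least one test.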

{"structure": "Cc1nnsc1CN(C)C(=O)c1ccc(CSc2nnc[nH]2)o1", "TcHisRS": -6.763, "PfKRS1": 2.621}
{"structure": "Cn1cnnc1CCNC(=O)c1cnn(Cc2ccccc2)c1", "TcHisRS": 7.179, "PfKRS1": 1.339}
{"structure": "Cc1nnc2ccc(N3CCC(C(=O)Nc4nccs4)CC3)nn12", "TcHisRS": 0.5848, "PfKRS1": 0.4849}
{"structure": "O=c1c2ccccc2nc2n1C(CSc1ccc(Cl)cc1)CN2", "stereo": "stereo not given", "TcHisRS": 8.333, "PfKRS1": 2.06}
{"structure": "COc1ccc(CC(=O)Nc2cccnc2N2CCCC2)cc1OC", "TcHisRS": 4.36, "PfKRS1": 1.052}
{"structure": "COCCN1CCC2(COCc3cnc(-c4ccccc4)nc32)C1", "stereo": "stereo not given", "TcHisRS": 2.116, "PfKRS1": 2.442}
{"structure": "O=C(c1ccoc1)N1CC[C@@H]2O[C@@H](COCc3ccccn3)CC[C@@H]21", "TcHisRS": 10.92, "PfKRS1": -2.873}
{"structure": "COc1ccc(CNC(=O)NCCc2nc(C)c(C)s2)cn1", "TcHisRS": 7.792, "PfKRS1": 0.5423}
{"structure": "CCCNC(=O)c1ccc(S(=O)(=O)NCC2(O)CCCNC2)cc1", "stereo": "stereo not given", "TcHisRS": 5.747, "PfKRS1": 3.151}
{"structure": "CCC(CNC(=O)c1nc(=O)[nH][nH]1)Oc1cccc(F)c1", "stereo": "stereo not given", "TcHisRS": 8.743, "PfKRS1": -0.8157}
{"structure": "CN(C)CCN1C[C@@H]2CN(C(=O)C3CC=CC3)C[C@@H]2C1=O", "TcHisRS": 0, "PfKRS1": -0.8532}
{"structure": "CCc1nc(C2CCCN(C(=O)CN(C)S(C)(=O)=O)C2)no1", "stereo": "stereo not given", "TcHisRS": 2.642, "PfKRS1": 6.454}
{"structure": "CCn1ccnc1CN1CCCN(C(=O)c2scnc2C)CC1", "TcHisRS": 4.118, "PfKRS1": 1.975}
{"structure": "CC(C)NC(=O)C1CN(C(=O)c2ccco2)CC12CCOCC2", "stereo": "stereo not given", "TcHisRS": 1.639, "PfKRS1": 4.512}
{"structure": "c1nc2onc(C3CC3)c2cc1-c1nnc(C2CC2)o1", "TcHisRS": 8.824, "PfKRS1": -0.4676}
{"structure": "Cc1cnc(CNc2ccc(C(=O)NCc3ccco3)cc2C)o1", "TcHisRS": 3.03, "PfKRS1": -2.738}
{"structure": "C1CC(CN2C[C@H]3CC[C@@H]2CN(Cc2nnc(C4CC4)o2)C3)C1", "TcHisRS": 4.046, "PfKRS1": 3.523}
{"structure": "CN1C(=O)COc2cc(NC(=O)CCc3nc4cccnc4[nH]3)ccc21", "TcHisRS": 8.808, "PfKRS1": 1.445}
{"structure": "c1ccc(C2CCCN2C2CCSCC2)nc1", "stereo": "stereo not given", "TcHisRS": 13.27, "PfKRS1": 2.344}
{"structure": "O=C(c1ccccc1N1CCOCC1)N1CCCC(n2cccn2)C1", "stereo": "stereo not given", "TcHisRS": 6.015, "PfKRS1": 6.045}
{"structure": "Cc1cn2c(n1)CCC(NS(=O)(=O)c1cc(C)sc1C)C2", "stereo": "stereo not given", "TcHisRS": 2.976, "PfKRS1": 1.473}
{"structure": "c1coc(CN2CC[C@H]3O[C@@H](COCC4CC4)CC[C@H]32)c1", "TcHisRS": 4.02, "PfKRS1": 0.5851}
{"structure": "Cn1cc(Cl)c(CN(Cc2ccsc2)CC2CCCO2)n1", "stereo": "stereo not given", "TcHisRS": 5.217, "PfKRS1": 7.084}
{"structure": "COCCN1CCC(CNC(=O)c2ccnc(-n3ccnc3)c2)CC1", "TcHisRS": -3.509, "PfKRS1": 0.7284}
{"structure": "CCCNC(=O)CNC(=O)CC1CCCc2cc(OC)ccc21", "stereo": "stereo not given", "TcHisRS": 8.642, "PfKRS1": 5.128}
{"structure": "c1ccc(-n2ncc(CNC3CCc4ncnn4C3)n2)cc1", "stereo": "stereo not given", "TcHisRS": 6.107, "PfKRS1": 3.095}
{"structure": "Cc1ccc(C(=O)N2CCN(c3ccnc4ccsc34)CC2)o1", "TcHisRS": 6.186, "PfKRS1": -4.443}
{"structure": "CC(C)C(O)CNC(=O)CCCc1ccccn1", "stereo": "stereo not given", "TcHisRS": 6.173, "PfKRS1": 6.093}
{"structure": "CC(C)N1CCC(Cc2cncc(-c3cc(F)ccc3C(=O)O)n2)C1", "stereo": "stereo not given", "TcHisRS": 10, "PfKRS1": 1.794}
{"structure": "CN1[C@@H](C(=O)NCC2CC2)C[C@H]2CN(Cc3cccc(C#N)c3)C[C@H]21", "TcHisRS": 1.442, "PfKRS1": 2.152}
{"structure": "CCS(=O)(=O)N1CCC(Nc2ccc(C#N)cc2F)CC1", "TcHisRS": 3.448, "PfKRS1": 5.312}
{"structure": "CN(Cc1csc(-c2cccs2)n1)CC(O)CO", "stereo": "stereo not given", "TcHisRS": -1.818, "PfKRS1": -4.049}
{"structure": "Cc1nnc(NCc2ccccc2F)c(C#N)c1C", "TcHisRS": 30.61, "PfKRS1": -0.5297}
{"structure": "OC1(c2ccc(F)cc2)CCN(Cc2ccccc2N2CCCC2)CC1", "TcHisRS": 5.426, "PfKRS1": -1.974}
{"structure": "COc1cc(F)c(S(=O)(=O)N2CCN(C)Cc3ccccc32)cc1OC", "TcHisRS": 0, "PfKRS1": 6.359}
{"structure": "CNC(=O)Cc1cc2nccc(-c3c(OC)cccc3OC)n2n1", "TcHisRS": 9.04, "PfKRS1": 4.16}
{"structure": "COc1cc(Oc2ccc(C(N)=O)cn2)ccc1CN1CCCC1", "TcHisRS": 5.579, "PfKRS1": 2.22}
{"structure": "CNC(=O)NC(=O)C(C)Nc1ccccc1OCCOC", "stereo": "stereo not given", "TcHisRS": 4.082, "PfKRS1": 0.1955}
{"structure": "CC(O)CN1CCC(CN(C)Cc2cccc(C(=O)N(C)C)c2)CC1", "stereo": "stereo not given", "TcHisRS": 1.17, "PfKRS1": -1.687}
{"structure": "O=C(Cc1cccnc1)N1CCCC(n2cncn2)C1", "stereo": "stereo not given", "TcHisRS": 3.488, "PfKRS1": 0.6741}

Measurements from “University of Dundee, Small-Polar-MMV Screening Library” (2021), ChEMBL document CHEMBL3988442.